Results on 1 substance are retold here after publication PMC9371972, “Cryo-EM structure of the human CST–Polα/primase complex in a recruitment state” (Nature Structural & Molecular Biology, 2022).

Results are given in words; binding and its absence hold for the method and conditions named. Binding calls can cover weak binding; strength is not graded here.

This assay has as its target T1, CTC1 (subunit of the CST complex) (human, UniProt Q2NKJ3 1-1217).
T1 construct: human CTC1; the CTC1 chain of m1; Always present with STN1 and TEN1; written alone for subunit-to-subunit contacts; source: Tni insect cells (baculovirus), purified as part of CST; not shown: His6, N-terminal, cleaved; MBP, N-terminal, cleaved
T1 sequence: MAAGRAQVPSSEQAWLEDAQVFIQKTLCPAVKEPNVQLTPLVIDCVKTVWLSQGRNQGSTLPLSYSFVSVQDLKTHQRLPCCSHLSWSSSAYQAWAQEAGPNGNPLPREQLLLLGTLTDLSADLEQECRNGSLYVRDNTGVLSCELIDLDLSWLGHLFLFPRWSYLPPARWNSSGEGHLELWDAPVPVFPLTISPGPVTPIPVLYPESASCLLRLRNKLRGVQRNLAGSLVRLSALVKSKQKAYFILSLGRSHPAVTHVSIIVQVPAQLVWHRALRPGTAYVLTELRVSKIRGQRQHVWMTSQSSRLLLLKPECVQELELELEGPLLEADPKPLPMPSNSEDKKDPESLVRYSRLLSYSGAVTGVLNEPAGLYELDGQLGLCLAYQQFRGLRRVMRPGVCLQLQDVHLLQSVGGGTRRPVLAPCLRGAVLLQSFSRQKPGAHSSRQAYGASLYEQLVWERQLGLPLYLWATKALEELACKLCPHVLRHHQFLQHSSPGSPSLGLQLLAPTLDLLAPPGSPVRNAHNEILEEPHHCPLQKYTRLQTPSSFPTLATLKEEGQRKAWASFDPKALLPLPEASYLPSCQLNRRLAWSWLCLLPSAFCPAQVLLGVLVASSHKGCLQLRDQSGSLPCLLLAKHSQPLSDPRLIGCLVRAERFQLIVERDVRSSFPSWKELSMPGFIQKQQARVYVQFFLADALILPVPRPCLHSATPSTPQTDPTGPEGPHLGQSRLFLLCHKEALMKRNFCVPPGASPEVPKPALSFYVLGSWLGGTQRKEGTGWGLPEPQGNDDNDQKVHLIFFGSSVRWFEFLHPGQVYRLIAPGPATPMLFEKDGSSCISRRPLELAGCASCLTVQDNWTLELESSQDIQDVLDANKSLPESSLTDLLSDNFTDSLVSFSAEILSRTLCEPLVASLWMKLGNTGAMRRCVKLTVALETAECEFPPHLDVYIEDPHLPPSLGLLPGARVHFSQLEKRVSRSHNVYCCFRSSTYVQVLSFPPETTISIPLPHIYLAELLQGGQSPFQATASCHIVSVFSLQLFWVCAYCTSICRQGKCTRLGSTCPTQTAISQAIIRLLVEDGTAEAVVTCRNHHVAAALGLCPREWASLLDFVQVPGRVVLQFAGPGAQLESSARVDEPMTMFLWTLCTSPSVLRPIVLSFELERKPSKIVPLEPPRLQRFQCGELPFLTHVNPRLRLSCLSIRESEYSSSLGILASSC
As to the kind of experiment: cryo-EM structure; CST and Polα/primase (PP^FL or PP^ΔN) mixed equimolar (1.5 μM each) with (GGTTAG)3 ssDNA, cross-linked by GraFix (glutaraldehyde, glycerol gradient), 20 mM HEPES pH 7.5, 150 mM NaCl, 10 mM MgCl2, 0.5 mM TCEP; both purified.

Regarding “POLA1^ΔN (subunit of PP^ΔN) (human) (domain or fragment)”, the binding result is “binds”.
